Residue numbers refer to the chain shown, from its start. For part of these data: A negative result means that nothing was seen under these conditions. Protein sequences can lack the tags named with them. For part of these data: The comparison behind a weaker result is the experiment's own reference, which may not be listed here. For part of these data: For at least one entry, the source does not settle the construct or the ends of the probe. For part of these data: At least one verdict was read from the data and is not stated in words by the source.
Tests used:
Test in all cases: EMSA
[1] = molecular target: T1, RuvA wild type (Escherichia coli) (UniProt P0A809); conditions: 5 mM EDTA; EMSA with ~4-5 ng labelled DNA; 5 mM EDTA (gel 0.5x TBE) or 3 mM MgCl2 without EDTA (gel 0.5x TB + 200 uM MgCl2); recombinant protein; residues …; label: 5' IRD700 on S24 (IT.01); folded or branched DNA
T1 sequence (looked up): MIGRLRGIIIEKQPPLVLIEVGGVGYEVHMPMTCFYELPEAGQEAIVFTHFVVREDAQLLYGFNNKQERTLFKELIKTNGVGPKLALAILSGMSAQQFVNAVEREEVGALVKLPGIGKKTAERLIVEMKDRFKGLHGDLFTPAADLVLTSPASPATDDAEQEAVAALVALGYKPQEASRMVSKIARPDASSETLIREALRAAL

[2] = molecular target: T2, RuvAz87 N79D,N100D (Escherichia coli) (UniProt P0A809); conditions: EMSA with ~4-5 ng labelled DNA, 5 mM EDTA (gel 0.5x TBE) or 3 mM MgCl2 without EDTA (gel 0.5x TB + 200 uM MgCl2), recombinant protein, residues 1-203, label: 5' IRD700 on S24 (IT.01), folded or branched DNA
T2 sequence (looked up): T1 sequence (looked up) with N79D, N100D

[3] = molecular target: T3, RuvAz3 H29R,K129E,F140S (Escherichia coli) (UniProt P0A809); conditions: EMSA with ~4-5 ng labelled DNA, 5 mM EDTA (gel 0.5x TBE) or 3 mM MgCl2 without EDTA (gel 0.5x TB + 200 uM MgCl2), recombinant protein, residues 1-203, label: 5' IRD700 on S24 (IT.01), folded or branched DNA
T3 sequence (looked up): T1 sequence (looked up) with H29R, K129E, F140S

[4] = EDTA, slightly lower binding, complex I only

Sequence	binding result [1]	binding result ([2]; 3 mM Mg2+, totally unable to shift)	binding result [2, 4]	binding result ([3]; 3 mM Mg2+, partially unable to shift)	binding result [3, 4]
GACGCTGCCGAATTCTACCAGTGCCTTGCTAGGACATCTTTGCCCACCTGCAGGTTCACCC / ATGGATAGTCGGATCCTCTAGACAGCTCCATGTAGCAAGGCACTGGTAGAATTCGGCAGCGT / TGGGTGAACCTGCAGGTGGGCAAAGATGTCC / CATGGAGCTGTCTAGAGGATCCGACTATCGA [F2 (fork, three double-stranded arms)]	binds	–	–	–	–
GACGCTGCCGAATTCTACCAGTGCCTTGCTAGGACATCTTTGCCCACCTGCAGGTTCACCC / ATGGATAGTCGGATCCTCTAGACAGCTCCATGTAGCAAGGCACTGGTAGAATTCGGCAGCGT / TGGGTGAACCTGCAGGTGGGCAAAGATGTCC [F1 (fork, one arm single-stranded)]	binds	–	–	–	–
GACGCTGCCGAATTCTACCAGTGCCTTGCTAGGACATCTTTGCCCACCTGCAGGTTCACCC / TGGGTGAACCTGCAGGTGGGCAAAGATGTCCTAGCAATGTAATCGTCAAGCTTTATGCCGTT / CAACGGCATAAAGCTTGACGATTACATTGCTAGGACATGCTGTCTAGAGGATCCGACTATCGA / ATCGATAGTCGGATCCTCTAGACAGCATGTCCTAGCAAGGCACTGGTAGAATTCGGCAGCGT [X12 (synthetic Holliday junction)]	–	no binding	binds more weakly	binds more weakly	binds more weakly
